This passage reports binding results from publication PMC11900803.

Protein sequences, listed by entry. Tags and fused reporters are not part of them. Residues count along the entry.
UniProt P07996, residues 19-1170: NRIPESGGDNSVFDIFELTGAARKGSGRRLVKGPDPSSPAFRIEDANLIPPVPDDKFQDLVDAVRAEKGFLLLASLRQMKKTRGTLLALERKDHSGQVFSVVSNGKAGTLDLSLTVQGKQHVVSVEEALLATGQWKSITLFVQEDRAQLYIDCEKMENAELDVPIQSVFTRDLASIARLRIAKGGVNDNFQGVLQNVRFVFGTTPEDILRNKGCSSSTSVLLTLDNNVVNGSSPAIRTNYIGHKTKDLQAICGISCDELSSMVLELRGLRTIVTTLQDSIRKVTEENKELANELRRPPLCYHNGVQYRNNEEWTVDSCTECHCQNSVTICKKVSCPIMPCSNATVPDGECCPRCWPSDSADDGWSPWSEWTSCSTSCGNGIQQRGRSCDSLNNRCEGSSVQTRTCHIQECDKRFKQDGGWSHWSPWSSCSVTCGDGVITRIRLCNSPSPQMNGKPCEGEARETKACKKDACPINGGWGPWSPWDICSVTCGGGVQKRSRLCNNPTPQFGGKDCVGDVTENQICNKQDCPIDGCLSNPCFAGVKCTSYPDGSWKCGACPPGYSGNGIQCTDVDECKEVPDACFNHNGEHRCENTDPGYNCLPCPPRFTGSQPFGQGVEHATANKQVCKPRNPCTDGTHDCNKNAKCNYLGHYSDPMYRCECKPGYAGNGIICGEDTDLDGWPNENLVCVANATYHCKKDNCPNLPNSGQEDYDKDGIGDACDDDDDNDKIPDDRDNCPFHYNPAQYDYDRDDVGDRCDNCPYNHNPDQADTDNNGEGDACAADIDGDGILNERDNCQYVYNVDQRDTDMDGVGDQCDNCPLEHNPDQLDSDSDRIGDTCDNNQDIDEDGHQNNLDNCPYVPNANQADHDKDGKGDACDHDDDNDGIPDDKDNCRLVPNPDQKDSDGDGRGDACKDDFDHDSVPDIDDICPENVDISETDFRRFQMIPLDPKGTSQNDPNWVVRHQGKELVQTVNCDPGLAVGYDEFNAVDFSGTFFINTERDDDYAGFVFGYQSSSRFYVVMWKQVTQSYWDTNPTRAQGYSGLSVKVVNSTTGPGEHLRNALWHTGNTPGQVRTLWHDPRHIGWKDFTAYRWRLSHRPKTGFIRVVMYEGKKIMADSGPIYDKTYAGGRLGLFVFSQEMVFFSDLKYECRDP
UniProt P56199, residues 29-1179: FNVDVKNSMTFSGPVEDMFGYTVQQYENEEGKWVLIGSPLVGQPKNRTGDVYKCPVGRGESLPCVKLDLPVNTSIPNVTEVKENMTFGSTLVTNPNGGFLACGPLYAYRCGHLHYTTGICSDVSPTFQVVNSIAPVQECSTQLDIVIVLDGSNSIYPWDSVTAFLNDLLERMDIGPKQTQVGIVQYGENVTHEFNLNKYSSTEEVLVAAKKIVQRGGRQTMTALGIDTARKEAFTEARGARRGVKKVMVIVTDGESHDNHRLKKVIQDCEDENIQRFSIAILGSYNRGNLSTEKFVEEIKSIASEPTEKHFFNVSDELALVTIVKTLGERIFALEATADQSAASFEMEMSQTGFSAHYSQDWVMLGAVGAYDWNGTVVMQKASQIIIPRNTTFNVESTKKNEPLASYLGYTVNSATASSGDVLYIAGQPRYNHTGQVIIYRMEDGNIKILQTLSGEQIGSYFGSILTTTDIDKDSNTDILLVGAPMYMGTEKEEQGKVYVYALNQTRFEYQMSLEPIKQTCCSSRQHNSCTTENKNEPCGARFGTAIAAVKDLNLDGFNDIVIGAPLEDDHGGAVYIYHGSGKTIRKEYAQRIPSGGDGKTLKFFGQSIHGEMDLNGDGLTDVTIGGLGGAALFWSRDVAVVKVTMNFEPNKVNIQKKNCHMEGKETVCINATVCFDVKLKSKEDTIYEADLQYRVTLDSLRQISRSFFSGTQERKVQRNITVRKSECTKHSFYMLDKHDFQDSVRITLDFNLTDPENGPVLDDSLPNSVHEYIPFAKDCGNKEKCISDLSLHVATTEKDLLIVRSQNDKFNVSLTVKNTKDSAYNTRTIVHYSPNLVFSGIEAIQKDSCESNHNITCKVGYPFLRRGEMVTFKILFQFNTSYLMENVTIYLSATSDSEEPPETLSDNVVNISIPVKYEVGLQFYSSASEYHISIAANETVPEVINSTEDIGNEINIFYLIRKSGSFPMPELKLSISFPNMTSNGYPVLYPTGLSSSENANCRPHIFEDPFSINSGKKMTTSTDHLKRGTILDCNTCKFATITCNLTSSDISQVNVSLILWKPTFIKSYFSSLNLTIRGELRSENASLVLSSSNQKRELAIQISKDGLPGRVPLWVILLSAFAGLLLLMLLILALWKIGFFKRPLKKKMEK

The target of this assay is Thrombospondin 1 (human (endogenous in osteosarcoma cells)) (UniProt P07996). The experiment in a line: co-IP; Immunoprecipitation Kit with Protein A+G Agarose Gel (Beyotime); immunoprecipitates analysed by Western blotting; osteosarcoma cells in dedifferentiation; precipitating antibody and cell line not stated.

Results are given in words; binding and its absence hold for the method and conditions named. In cells and extracts the contact can be indirect. Some binding calls cover weakened binding; strength is not graded here.

“Integrin subunit alpha 1 (from UniProt P56199 29-1179) (receptor)”: the binding entry was “binds”.
